According to publication PMC9251840:
No constants are given. Whether binding was seen depends on the method and setting. In cells and extracts the contact can be indirect. Some results given as binding are weak or reduced against the parent protein; the word gives no strength.

By UniProt entry, the sequences of proteins in these tests, tags left out.
UniProt P51532: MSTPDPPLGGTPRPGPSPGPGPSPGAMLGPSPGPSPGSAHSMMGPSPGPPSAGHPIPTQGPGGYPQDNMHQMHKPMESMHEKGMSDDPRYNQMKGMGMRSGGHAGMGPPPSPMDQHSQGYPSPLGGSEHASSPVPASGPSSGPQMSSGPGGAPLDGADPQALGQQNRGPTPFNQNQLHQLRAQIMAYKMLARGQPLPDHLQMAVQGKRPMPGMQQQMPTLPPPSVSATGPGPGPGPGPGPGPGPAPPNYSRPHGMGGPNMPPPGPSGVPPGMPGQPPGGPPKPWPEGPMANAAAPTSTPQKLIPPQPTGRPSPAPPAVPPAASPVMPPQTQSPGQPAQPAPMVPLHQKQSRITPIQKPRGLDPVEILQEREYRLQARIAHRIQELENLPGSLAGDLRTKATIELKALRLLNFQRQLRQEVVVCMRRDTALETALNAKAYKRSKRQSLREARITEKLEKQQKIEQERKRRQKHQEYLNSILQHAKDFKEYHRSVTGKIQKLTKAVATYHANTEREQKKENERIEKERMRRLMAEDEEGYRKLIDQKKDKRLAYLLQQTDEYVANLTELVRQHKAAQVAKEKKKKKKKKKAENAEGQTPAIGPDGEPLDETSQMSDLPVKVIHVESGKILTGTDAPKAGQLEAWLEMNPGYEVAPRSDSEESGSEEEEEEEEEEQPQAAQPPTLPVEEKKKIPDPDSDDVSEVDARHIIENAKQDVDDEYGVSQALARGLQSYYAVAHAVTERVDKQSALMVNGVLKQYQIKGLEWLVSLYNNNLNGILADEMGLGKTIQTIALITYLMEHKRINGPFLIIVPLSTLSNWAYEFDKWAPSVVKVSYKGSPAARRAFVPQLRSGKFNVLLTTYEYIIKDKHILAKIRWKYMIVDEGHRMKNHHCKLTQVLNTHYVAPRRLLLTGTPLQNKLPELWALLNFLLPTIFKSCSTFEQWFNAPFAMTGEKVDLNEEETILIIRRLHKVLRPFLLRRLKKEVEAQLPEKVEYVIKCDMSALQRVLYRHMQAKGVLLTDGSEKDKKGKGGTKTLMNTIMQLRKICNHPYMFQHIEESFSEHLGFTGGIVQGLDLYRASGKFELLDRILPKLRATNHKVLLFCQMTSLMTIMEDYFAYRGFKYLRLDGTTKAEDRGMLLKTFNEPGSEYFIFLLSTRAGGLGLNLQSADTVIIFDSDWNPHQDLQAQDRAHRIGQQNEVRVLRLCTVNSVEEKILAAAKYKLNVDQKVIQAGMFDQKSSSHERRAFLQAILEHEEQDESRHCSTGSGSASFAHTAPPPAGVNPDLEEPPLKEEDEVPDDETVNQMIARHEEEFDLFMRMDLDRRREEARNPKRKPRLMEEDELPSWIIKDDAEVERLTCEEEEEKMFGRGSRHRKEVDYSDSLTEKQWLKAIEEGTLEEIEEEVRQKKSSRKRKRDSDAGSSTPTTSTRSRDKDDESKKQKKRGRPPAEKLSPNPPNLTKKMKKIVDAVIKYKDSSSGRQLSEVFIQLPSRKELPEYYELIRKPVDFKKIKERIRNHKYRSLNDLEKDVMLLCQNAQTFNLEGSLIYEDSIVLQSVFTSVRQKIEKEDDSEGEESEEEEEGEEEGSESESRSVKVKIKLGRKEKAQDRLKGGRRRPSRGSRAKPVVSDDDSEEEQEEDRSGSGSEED
UniProt Q01844: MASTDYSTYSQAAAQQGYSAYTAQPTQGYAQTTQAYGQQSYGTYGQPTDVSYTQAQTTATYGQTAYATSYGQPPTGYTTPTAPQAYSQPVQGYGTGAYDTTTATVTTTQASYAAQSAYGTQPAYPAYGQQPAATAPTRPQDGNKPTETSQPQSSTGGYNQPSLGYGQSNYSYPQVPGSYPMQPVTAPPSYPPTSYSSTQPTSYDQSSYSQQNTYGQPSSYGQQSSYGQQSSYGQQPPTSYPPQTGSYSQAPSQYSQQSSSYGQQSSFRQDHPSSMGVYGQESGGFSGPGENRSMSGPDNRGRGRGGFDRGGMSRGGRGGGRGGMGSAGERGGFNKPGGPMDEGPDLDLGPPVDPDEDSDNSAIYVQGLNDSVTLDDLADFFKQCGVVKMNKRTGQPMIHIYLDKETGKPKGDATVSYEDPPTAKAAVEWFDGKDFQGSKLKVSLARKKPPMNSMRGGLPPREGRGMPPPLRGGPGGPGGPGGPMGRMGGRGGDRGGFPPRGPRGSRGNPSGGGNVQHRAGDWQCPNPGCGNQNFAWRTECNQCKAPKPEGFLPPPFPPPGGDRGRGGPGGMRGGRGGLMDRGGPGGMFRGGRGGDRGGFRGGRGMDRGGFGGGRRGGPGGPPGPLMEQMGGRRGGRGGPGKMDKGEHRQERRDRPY
UniProt P35637: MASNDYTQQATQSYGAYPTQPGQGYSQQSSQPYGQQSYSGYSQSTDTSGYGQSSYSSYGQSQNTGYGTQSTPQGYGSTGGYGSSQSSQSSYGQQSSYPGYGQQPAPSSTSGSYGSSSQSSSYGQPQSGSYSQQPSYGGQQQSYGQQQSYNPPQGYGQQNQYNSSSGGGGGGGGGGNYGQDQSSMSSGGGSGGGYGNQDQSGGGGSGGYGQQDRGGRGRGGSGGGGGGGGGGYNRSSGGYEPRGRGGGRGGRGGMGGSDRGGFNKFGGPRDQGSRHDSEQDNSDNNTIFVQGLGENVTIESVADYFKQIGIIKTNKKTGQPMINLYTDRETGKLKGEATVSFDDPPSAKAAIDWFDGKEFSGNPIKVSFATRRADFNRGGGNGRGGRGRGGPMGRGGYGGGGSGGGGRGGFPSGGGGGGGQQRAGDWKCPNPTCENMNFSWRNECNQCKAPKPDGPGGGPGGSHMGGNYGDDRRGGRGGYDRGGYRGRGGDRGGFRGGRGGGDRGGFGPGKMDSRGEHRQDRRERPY
UniProt Q969G3: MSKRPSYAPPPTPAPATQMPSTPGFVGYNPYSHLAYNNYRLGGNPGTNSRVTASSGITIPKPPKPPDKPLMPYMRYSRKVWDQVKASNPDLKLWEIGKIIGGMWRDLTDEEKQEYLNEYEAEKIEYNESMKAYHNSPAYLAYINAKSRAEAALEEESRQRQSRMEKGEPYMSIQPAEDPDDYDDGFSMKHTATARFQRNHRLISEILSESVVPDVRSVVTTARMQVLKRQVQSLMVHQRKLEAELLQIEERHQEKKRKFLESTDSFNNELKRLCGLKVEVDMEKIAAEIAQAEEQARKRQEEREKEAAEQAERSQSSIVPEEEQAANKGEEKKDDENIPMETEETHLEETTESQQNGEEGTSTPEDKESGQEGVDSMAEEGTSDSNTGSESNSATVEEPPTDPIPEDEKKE

Experiments:
[1] = molecular target: BRG1 (human (endogenous in MLS 402-91, MLS 1765-92, EWS TC-71, HT1080)) (UniProt P51532); experiment: co-IP; indirect IP with BRG1-biotin antibody and streptavidin beads of sequential salt nuclear extracts (250, 500 and 1000 mM KCl, diluted to 150 mM) of MLS 402-91 and EWS TC-71; quantitative western blot
[2] = molecular target: BRG1 (human (endogenous in MLS 402-91, MLS 1765-92, EWS TC-71, HT1080)) (UniProt P51532); experiment: co-IP; BRG1-biotin IP of nuclear extracts of HT1080 cells transiently transfected (24 h) with FUS-DDIT3-EGFP, EWSR1-FLI1-EGFP or EGFP control; western blot

| binding [1] | binding [2] | Substance |
| --- | --- | --- |
| binds weakly |  | EWSR1 (normal FET protein) (from UniProt Q01844 1-656) |
| binds weakly |  | FUS (normal FET protein) (from UniProt P35637 1-526) |
| binds | binds | BAF57 (from UniProt Q969G3 1-411) |
